From paper PMC9256790 (Molecular cancer therapeutics, 2022)

Legend:
Assay in all cases: Cell proliferation
Assay type in all cases: cell-based
MDA-MB-468 = details: Homo sapiens, MDA-MB-468, read-out: Mean IC50 ± SEM
MDA-MB-231/TxR = details: Homo sapiens, read-out: Mean IC50 ± SEM
MDA-MB-231 = details: Homo sapiens, MDA-MB-231, read-out: Mean IC50 ± SEM
Mia PaCa-2 = details: Homo sapiens, MIA PaCa-2, read-out: Mean IC50 ± SEM
MDA-MB-468/TxR = details: Homo sapiens, MDA-MB-468, read-out: Mean IC50 ± SEM
cHCI-2 = details: Homo sapiens, 120 h, read-out: Mean IC50 ± SEM
cHCI-10 = details: Homo sapiens, 120 h, read-out: Mean IC50 ± SEM

SMILES: COc1cc2c(c(OC)c1OC)-c1ccc(OC)c(=O)cc1[C@@H](NC(C)=O)CC2 [Colchicine]
- IC50 (MDA-MB-468): 7.9 ± 1.4 nM
- IC50 (MDA-MB-231/TxR): 36.8 ± 6.4 nM
- IC50 (MDA-MB-231): 23.7 ± 3.1 nM
- IC50 (Mia PaCa-2): 20.3 ± 2.3 nM
- IC50 (MDA-MB-468/TxR): 41.9 ± 5.7 nM
- IC50 (cHCI-2): 16.6 ± 6.9 nM
- IC50 (cHCI-10): 23.4 ± 8.4 nM
